Results reported in patent EP0440688B1, “CPF PEPTIDE COMPOSITIONS AND USES” (THE CHILDREN'S HOSPITAL OF PHILADELPHIA, priority 1988, dated 1994).
At least one peptide structure holds a part that was inferred or is arguable (an end, a ring closure or a residue). Peptide text beside a SMILES is read from it.

What was measured:
Assay type in all cases: cell-based
Ehrlich Ascites = experiment: Activity against malignant cells, cell killing by Trypan Blue permeabilization; conditions: confluent lawn, MEM with 10% fetal calf serum, 37 °C, 30 min
T. pyriformis = experiment: Sensitivity of protozoa: minimal concentration that physically disrupts (osmotic swelling); conditions: physical disruption
Vero cells = experiment: Activity against malignant cells, cell killing by Trypan Blue permeabilization; conditions: confluent lawn, MEM with 10% fetal calf serum, 37 °C, 30 min
P. caudatum = experiment: Sensitivity of protozoa: minimal concentration that physically disrupts (osmotic swelling); conditions: physical disruption

For `CC[C@H](C)[C@H](NC(=O)[C@H](CCCCN)NC(=O)[C@H](CC(C)C)NC(=O)[C@H](C)NC(=O)[C@H](C)NC(=O)[C@H](CCCCN)NC(=O)[C@H](CC(C)C)NC(=O)[C@H](C)NC(=O)[C@H](CC(C)C)NC(=O)CNC(=O)[C@H](CC(C)C)NC(=O)[C@H](Cc1ccccc1)NC(=O)[C@H](CO)NC(=O)CNC(=O)[C@H](Cc1ccccc1)NC(=O)CN)C(=O)NCC(=O)N[C@@H](C)C(=O)N[C@@H](CC(N)=O)C(=O)N[C@@H](C)C(=O)N[C@@H](CC(C)C)C(=O)NCC(=O)NCC(=O)N[C@@H](C)C(=O)N1CCC[C@H]1C(=O)N[C@@H](CCC(N)=O)C(=O)N[C@@H](CCC(N)=O)C(=O)O` [CPF (I)] (H-GFGSFLGLALKAALKIGANALGGAPQQ-OH), the “concentration at which greater than 90% of the cells were killed” value (Ehrlich Ascites) was 250 µg/mL, the “Minimal Disruptive Concentration” value (T. pyriformis) was 10 µg/mL and the “concentration at which greater than 90% of the cells were killed” value (Vero cells) was 250 µg/mL. The “Minimal Disruptive Concentration” value (P. caudatum) was 10 µg/mL.
With `CC[C@H](C)[C@H](NC(=O)[C@H](CCCCN)NC(=O)[C@H](CC(C)C)NC(=O)[C@H](C)NC(=O)[C@H](C)NC(=O)[C@H](CCCCN)NC(=O)[C@H](CC(C)C)NC(=O)[C@H](C)NC(=O)[C@H](CCCCN)NC(=O)CNC(=O)[C@H](CC(C)C)NC(=O)[C@H](Cc1ccccc1)NC(=O)[C@H](CO)NC(=O)[C@H](C)NC(=O)[C@H](Cc1ccccc1)NC(=O)CN)C(=O)NCC(=O)N[C@@H](C)C(=O)N[C@@H](CC(N)=O)C(=O)N[C@@H](CC(C)C)C(=O)N[C@@H](CC(C)C)C(=O)NCC(=O)NCC(=O)N[C@H](C(=O)N1CCC[C@H]1C(=O)N[C@@H](CCC(N)=O)C(=O)N[C@@H](CCC(N)=O)C(=O)O)[C@@H](C)O` [CPF (II)] (H-GFASFLGKALKAALKIGANLLGGTPQQ-OH) the “concentration at which greater than 90% of the cells were killed” value (Ehrlich Ascites) was 250 µg/mL, the “Minimal Disruptive Concentration” value (T. pyriformis) was 10 µg/mL and the “concentration at which greater than 90% of the cells were killed” value (Vero cells) was 250 µg/mL. The “Minimal Disruptive Concentration” value (P. caudatum) was 10 µg/mL.
